No constants are given. Whether binding was seen depends on the method and setting. In cells and extracts the contact can be indirect. A yes stands for co-enrichment or nearness to the bait. Other partners may have been found.
Experiments:
Experiment in all cases: affinity purification with mass spectrometry; N-His6 bait overproduced in H. volcanii; cytoplasmic extract on nickel chelating sepharose at room temperature in 2.1 M NaCl, 20 mM HEPES, 20 mM imidazole; four washes with 30 mM imidazole, elution with 700 mM imidazole; no RNase step, no cross-linking; co-isolated proteins identified by LC-MS/MS; three biological replicates; proteins found in the empty-vector or DHFR controls removed
[1] = target: T1, DNA-directed RNA polymerase subunit Rpo2N (Haloferax volcanii) (UniProt D4GZX4)
T1 sequence: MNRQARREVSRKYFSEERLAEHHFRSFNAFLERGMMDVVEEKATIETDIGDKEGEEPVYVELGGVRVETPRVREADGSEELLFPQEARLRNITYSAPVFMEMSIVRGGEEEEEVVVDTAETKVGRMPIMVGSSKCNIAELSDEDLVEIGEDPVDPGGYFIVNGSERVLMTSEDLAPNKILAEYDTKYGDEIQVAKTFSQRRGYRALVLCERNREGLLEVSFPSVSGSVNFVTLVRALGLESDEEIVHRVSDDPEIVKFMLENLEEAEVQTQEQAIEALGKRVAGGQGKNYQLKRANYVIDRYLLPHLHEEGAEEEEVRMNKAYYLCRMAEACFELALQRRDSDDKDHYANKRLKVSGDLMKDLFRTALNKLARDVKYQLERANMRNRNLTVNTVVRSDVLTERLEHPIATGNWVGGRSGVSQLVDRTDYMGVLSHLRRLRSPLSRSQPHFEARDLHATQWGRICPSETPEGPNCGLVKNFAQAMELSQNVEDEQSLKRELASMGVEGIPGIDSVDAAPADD

[2] = target: T2, DNA-directed RNA polymerase subunit Rpo1N (Haloferax volcanii) (UniProt D4GZX6)
T2 sequence: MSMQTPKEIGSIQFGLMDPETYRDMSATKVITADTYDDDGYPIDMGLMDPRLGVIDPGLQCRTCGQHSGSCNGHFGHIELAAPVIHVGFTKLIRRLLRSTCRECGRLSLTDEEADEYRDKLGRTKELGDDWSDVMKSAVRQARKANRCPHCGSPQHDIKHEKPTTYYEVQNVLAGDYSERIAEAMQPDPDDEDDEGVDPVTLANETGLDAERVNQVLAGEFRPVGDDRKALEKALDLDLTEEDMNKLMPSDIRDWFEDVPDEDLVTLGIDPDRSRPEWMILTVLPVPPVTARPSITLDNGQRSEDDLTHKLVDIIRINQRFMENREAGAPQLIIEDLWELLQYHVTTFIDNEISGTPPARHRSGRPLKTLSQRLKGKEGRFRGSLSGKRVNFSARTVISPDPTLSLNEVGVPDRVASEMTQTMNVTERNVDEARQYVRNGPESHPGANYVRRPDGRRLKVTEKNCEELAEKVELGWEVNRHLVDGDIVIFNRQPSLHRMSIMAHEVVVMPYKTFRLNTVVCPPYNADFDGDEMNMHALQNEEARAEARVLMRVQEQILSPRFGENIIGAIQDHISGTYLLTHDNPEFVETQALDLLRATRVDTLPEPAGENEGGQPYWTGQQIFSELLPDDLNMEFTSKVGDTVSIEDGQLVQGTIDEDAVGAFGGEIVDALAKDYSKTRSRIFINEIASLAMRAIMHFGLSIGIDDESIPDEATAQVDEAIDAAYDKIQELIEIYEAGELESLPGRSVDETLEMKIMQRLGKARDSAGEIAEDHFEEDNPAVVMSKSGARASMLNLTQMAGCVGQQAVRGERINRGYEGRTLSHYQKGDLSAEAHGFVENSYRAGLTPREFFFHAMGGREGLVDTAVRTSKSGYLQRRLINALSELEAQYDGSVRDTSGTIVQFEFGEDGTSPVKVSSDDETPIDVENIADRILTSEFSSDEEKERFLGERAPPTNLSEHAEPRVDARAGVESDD

[3] = target: T3, DNA-directed RNA polymerase subunit Rpo5 (Haloferax volcanii) (UniProt D4GZX3)
T3 sequence: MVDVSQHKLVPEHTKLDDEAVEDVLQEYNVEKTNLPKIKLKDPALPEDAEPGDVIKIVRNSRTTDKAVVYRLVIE

[4] = target: T4, DNA-directed RNA polymerase subunit Rpo1C (Haloferax volcanii) (UniProt D4GZX7)
T4 sequence: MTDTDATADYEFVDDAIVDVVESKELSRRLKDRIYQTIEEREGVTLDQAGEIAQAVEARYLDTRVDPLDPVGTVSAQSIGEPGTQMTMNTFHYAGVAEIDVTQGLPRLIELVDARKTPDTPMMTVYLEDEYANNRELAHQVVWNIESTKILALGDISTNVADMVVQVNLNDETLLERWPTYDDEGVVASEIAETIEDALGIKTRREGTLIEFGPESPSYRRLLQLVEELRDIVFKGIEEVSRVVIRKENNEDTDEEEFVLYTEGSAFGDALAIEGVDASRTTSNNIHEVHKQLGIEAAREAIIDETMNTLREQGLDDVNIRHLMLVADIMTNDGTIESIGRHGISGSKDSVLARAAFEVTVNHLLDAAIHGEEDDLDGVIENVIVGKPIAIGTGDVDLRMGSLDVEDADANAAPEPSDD

[5] = target: T5, DNA-directed RNA polymerase subunit Rpo3 (Haloferax volcanii) (UniProt D4GWY4)
T5 sequence: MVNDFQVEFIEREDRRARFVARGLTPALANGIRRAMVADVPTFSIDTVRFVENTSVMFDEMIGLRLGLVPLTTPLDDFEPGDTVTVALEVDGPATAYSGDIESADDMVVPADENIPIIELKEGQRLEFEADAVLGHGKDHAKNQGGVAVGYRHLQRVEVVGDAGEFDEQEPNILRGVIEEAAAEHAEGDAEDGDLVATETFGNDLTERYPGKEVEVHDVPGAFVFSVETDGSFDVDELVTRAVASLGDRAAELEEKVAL

[6] = target: T6, DNA-directed RNA polymerase subunit Rpo11 (Haloferax volcanii) (UniProt D4GVL8)
T6 sequence: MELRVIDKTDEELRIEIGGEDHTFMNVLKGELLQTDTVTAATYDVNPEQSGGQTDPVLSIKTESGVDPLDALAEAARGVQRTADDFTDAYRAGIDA

Measured: binding

B1: DNA-directed RNA polymerase subunit Rpo3 (protein, UniProt D4GWY4 1-259)
chain: T5 sequence
binds: [1] | [2] | [3] | [4]

B2: DNA-directed RNA polymerase subunit Rpo11 (protein, UniProt D4GVL8 1-96)
chain: T6 sequence
binds: [1] | [2] | [3] | [4]

B3: DNA-directed RNA polymerase subunit Rpo1N (protein, UniProt D4GZX6 1-976)
chain: T2 sequence
binds: [1] | [5] | [3] | [6]

B4: DNA-directed RNA polymerase subunit Rpo1C (protein, UniProt D4GZX7 1-419)
chain: T4 sequence
binds: [1] | [5] | [3] | [6]

B5: RNA polymerase auxiliary subunit RpoF (protein, UniProt D4GWA3 1-118)
chain: MTIFKEKLDEEYLTTSEVKELLAEVEAERAADEEREMRYELARAIEHVNRFAHLDPEESRELVEELAELEKVDGPTAIKIADLLPQSRDELRAVFAQQRYALSGDELDEILNVVAKYV
binds: [3]
